From the supplement of paper PMC12067093, “Discovery and optimisation of a covalent ligand for TRIM25 and its application to targeted protein ubiquitination” (Chemical Science, 2025)
The other results are listed elsewhere or left out.

Chains of the proteins cited; added tags and fusions are not shown. Lines headed by an entry give the natural chain unless they say otherwise; changes in a name come on top.
UniProt Q8IX01: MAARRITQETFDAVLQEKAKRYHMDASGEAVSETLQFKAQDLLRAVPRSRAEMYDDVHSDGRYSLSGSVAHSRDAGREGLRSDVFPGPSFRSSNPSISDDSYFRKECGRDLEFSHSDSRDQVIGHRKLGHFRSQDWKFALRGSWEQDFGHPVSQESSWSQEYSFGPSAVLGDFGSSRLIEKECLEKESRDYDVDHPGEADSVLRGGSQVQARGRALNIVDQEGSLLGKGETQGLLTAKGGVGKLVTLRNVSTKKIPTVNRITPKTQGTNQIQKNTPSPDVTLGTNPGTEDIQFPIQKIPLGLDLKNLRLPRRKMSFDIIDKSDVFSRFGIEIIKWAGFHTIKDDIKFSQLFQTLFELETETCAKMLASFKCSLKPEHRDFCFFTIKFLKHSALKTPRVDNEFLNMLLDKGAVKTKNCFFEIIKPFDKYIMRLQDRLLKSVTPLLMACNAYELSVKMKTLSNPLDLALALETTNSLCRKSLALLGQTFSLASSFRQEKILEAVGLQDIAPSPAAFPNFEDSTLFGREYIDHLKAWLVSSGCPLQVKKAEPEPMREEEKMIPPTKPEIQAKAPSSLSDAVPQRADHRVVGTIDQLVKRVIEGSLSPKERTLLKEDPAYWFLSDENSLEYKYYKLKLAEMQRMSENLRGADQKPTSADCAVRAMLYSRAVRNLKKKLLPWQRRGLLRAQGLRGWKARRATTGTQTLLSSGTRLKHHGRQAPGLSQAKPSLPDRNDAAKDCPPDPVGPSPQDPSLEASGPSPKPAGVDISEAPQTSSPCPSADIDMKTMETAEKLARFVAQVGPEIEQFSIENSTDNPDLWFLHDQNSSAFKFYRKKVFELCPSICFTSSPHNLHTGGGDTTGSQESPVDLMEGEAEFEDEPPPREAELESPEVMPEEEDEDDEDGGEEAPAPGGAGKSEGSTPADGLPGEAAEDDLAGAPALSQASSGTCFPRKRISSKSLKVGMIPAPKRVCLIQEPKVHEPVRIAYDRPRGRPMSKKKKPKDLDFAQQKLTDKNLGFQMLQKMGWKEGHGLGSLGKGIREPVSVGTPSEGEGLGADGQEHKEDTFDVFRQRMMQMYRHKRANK
UniProt Q9BXP5: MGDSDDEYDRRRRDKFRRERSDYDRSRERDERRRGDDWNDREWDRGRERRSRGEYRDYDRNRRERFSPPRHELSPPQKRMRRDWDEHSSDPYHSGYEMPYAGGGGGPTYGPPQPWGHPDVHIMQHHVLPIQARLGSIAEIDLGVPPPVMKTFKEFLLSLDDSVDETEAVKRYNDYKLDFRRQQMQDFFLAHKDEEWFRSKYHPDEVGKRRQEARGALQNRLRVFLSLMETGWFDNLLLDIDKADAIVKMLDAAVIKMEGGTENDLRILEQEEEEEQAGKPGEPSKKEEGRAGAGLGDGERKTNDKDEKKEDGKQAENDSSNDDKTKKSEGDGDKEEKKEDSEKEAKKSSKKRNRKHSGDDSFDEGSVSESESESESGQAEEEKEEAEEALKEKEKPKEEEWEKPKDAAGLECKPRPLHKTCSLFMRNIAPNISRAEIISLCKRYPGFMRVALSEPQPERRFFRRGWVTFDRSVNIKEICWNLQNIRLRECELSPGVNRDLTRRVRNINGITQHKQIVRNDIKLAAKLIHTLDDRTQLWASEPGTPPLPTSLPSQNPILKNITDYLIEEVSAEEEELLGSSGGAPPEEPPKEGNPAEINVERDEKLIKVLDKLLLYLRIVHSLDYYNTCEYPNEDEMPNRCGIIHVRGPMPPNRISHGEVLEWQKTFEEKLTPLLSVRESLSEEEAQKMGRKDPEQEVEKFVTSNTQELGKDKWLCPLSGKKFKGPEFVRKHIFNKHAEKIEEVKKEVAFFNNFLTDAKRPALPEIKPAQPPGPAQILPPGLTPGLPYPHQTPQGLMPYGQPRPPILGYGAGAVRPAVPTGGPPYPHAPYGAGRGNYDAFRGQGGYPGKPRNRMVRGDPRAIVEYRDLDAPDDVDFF
UniProt P31948, whole entry, looked up: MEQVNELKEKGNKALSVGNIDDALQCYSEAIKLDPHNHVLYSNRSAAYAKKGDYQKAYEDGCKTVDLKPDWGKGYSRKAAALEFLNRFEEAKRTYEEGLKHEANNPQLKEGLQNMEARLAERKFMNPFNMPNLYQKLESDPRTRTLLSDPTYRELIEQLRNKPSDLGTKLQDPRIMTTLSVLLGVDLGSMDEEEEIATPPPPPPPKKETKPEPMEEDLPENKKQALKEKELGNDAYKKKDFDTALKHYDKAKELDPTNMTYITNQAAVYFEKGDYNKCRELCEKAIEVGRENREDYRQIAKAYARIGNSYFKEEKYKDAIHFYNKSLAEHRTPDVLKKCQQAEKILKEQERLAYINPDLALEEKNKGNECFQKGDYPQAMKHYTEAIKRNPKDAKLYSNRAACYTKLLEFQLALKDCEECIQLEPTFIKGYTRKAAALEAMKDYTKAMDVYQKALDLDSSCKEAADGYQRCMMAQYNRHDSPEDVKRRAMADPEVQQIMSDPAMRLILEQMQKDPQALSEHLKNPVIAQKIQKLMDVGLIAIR
UniProt Q08945, whole entry, looked up: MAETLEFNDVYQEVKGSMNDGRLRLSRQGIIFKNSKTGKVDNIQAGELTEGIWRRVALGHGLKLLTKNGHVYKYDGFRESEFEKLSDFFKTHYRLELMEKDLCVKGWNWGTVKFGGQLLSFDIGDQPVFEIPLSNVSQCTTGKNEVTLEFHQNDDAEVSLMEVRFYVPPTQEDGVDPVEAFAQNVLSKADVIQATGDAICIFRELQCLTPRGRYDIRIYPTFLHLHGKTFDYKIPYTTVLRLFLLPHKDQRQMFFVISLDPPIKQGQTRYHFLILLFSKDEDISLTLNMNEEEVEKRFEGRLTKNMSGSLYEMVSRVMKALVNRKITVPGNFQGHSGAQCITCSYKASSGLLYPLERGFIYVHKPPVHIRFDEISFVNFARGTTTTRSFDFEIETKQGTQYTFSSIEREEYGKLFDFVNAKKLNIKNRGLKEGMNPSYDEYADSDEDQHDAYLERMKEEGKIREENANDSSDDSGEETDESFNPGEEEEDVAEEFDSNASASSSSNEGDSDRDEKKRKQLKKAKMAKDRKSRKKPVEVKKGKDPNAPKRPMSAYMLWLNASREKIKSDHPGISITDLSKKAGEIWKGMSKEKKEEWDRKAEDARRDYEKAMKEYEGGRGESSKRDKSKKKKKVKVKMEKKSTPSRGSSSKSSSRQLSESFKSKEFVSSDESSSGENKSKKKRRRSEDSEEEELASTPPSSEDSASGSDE
UniProt Q15833: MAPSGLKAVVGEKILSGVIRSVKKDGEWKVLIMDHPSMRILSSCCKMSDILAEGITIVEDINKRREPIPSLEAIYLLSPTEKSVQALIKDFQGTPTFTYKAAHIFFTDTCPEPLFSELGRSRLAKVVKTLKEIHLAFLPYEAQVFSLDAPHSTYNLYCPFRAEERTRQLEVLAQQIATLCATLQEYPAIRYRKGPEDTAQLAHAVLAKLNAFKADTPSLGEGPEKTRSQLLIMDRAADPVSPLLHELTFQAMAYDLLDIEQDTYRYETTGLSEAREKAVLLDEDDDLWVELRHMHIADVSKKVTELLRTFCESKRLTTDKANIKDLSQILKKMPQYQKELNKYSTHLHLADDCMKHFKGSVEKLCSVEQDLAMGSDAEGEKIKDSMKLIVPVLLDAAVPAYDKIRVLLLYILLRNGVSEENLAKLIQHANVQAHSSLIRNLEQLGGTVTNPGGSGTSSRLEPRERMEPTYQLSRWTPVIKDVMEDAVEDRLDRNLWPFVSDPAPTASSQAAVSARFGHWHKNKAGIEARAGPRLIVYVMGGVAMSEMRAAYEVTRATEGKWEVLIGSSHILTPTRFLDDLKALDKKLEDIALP
UniProt P08240: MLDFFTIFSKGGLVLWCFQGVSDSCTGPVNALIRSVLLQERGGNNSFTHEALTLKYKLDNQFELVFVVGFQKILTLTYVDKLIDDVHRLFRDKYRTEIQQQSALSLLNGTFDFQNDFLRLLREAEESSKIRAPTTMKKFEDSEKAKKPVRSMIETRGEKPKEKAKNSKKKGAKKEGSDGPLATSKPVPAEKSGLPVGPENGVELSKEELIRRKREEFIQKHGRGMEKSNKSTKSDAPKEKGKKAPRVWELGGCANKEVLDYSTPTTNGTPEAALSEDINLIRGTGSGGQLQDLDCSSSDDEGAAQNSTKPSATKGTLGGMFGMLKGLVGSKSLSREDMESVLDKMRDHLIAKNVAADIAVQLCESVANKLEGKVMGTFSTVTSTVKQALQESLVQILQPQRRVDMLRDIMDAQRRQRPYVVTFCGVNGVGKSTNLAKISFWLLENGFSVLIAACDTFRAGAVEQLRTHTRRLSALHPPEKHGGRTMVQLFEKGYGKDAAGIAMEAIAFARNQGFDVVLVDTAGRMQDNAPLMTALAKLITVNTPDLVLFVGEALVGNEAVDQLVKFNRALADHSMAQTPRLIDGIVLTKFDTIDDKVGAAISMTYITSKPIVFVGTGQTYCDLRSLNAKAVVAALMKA
UniProt Q15022: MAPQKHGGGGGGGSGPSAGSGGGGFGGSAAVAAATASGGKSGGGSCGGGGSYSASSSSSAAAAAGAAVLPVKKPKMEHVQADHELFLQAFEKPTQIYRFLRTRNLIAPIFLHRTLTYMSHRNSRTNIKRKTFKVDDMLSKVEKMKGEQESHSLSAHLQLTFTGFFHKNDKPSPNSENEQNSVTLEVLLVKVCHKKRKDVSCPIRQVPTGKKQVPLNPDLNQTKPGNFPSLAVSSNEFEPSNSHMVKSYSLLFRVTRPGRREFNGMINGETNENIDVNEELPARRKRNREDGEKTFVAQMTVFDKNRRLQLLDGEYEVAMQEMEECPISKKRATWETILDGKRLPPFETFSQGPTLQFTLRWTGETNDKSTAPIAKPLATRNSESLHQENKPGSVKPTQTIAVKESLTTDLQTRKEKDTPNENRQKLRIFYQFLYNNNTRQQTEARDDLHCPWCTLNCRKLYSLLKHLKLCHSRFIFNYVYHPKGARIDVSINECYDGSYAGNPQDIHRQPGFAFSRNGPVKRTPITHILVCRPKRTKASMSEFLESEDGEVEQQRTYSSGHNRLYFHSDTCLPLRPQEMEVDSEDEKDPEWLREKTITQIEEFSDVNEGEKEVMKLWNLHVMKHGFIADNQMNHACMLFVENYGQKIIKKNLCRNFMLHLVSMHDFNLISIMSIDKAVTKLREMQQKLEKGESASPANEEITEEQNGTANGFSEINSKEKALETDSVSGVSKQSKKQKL
UniProt Q16629: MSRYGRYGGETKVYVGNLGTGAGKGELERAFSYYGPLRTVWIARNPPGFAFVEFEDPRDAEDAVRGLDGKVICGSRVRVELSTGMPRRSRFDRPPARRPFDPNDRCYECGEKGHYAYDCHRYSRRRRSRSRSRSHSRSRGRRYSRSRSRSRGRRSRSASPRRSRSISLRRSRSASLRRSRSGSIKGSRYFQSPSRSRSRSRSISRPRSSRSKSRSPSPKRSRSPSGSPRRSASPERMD
UniProt P78362, whole entry, looked up: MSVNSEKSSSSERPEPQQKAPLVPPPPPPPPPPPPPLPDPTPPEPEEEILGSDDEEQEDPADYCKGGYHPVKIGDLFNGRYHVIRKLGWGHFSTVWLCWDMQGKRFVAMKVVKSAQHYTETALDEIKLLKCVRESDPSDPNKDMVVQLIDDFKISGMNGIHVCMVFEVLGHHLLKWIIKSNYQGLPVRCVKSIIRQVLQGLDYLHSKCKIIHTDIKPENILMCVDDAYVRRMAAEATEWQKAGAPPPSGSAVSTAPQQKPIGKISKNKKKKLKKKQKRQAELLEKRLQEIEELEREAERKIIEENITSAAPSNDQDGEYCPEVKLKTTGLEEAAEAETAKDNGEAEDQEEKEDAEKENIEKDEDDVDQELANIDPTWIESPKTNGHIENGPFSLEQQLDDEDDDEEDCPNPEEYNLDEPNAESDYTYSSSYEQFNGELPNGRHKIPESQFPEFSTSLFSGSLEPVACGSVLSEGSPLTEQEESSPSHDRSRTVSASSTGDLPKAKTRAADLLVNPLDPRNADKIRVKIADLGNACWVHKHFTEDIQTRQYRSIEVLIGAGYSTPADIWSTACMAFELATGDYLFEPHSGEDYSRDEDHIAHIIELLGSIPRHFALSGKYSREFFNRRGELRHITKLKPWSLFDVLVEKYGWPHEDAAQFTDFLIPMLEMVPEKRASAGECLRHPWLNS
UniProt Q15831: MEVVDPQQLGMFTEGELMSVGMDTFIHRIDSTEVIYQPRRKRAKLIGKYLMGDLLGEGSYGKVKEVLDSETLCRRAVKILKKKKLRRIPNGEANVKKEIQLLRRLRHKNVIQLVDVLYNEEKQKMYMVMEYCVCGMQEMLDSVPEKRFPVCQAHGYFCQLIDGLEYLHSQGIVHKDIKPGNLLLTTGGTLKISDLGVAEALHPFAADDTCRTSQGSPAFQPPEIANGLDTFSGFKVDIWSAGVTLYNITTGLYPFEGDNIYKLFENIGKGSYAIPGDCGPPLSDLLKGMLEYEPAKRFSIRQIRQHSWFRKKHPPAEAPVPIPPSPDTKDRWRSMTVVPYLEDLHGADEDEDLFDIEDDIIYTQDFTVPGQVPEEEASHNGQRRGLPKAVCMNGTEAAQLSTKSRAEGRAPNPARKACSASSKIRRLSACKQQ

Compound: CC1Cc2ccccc2N1C(=O)C1CCCN(C1)C(=O)CCl (mixture of isomers) [TRIM25 ligand 11 (diastereomer mixture)]
Experiment: probe-labelled cysteine peptide fold change vs DMSO (competition) (log2 fold change); higher = less target engagement (more negative = stronger competition)
Conditions: THP-1, incubation time: 4 h
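Note: competitive chemoproteomic profiling in live THP-1 cells with an iodoacetamide desthiobiotin (IA-DTB) probe, comparing probe-labelled peptide intensities in compound-treated cells against DMSO-treated controls.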

Row | Target | probe-labelled cysteine peptide fold change (10 µM) | probe-labelled cysteine peptide fold change (50 µM)
1 | STRIP1_Q5VSL9_769_LNDDWAYGNDLDARPWDFQAEECALR (UniProt Q5VSL9) | 0.119 | -0.189
2 | SUGP2_Q8IX01_476_TLSNPLDLALALETTNSLCR (UniProt Q8IX01) | 0.251 | 0.285
3 | SVIL_O95425_76_YCTETSGVHGDSPYGSGTMDTHSLESK (UniProt O95425) | 0.241 | -0.194
4 | STT3B_Q8TCJ2_715_AGSPTLLNCLMYK (UniProt Q8TCJ2) | 0.0198 | 0.0987
5 | SRRT_Q9BXP5_490_LRECELSPGVNR (UniProt Q9BXP5) | -0.0498 | 0.266
6 | STAT3_P40763_542_LLGPGVNYSGCQITWAK (UniProt P40763) | -0.00986 | 0.0174
7 | SUPT16H_Q9Y5B9_323_ICDVYNAVMDVVK (UniProt Q9Y5B9) | 0.141 | -0.00646
8 | STIP1_P31948_471_CMMAQYNR (UniProt P31948) | -0.155 | -0.0349
9 | STRAP_Q9Y3F4_270_GHFGPIHCVR (UniProt Q9Y3F4) | 0.0731 | 0.0826
10 | STK16_O75716_174_DLKPTNILLGDEGQPVLMDLGSMNQACIHVEGSR (UniProt O75716) | 0.00578 | -0.202
11 | SURF2_Q15527_29+38_CILTGHELPCR (UniProt Q15527) | -0.183 | -0.0248
12 | SSRP1_Q08945_343_ITVPGNFQGHSGAQCITCSYK (UniProt Q08945) | 0.028 | 0.249
13 | SRXN1_Q9BYN0_99_GAQGGDYFYSFGGCHR (UniProt Q9BYN0) | 0.287 | 0.494
14 | SUGP2_Q8IX01_970_VCLIQEPK (UniProt Q8IX01) | 0.0982 | 0.00319
15 | STXBP2_Q15833_44_ILSSCCK (UniProt Q15833) | 0.122 | 0.288
16 | STAT2_P52630_529_LFGQNCR (UniProt P52630) | 0.088 | -0.00846
17 | SRPRA_P08240_424_RQRPYVVTFCGVNGVGK (UniProt P08240) | -0.0263 | 0.0888
18 | SUZ12_Q15022_201_DVSCPIR (UniProt Q15022) | 0.0532 | 0.0287
19 | SUCLG1_P53597_60_IICQGFTGK (UniProt P53597) | -0.0252 | 0.0159
20 | SRSF7_Q16629_106+109_CYECGEK (UniProt Q16629) | 0.0653 | 0.122
21 | STAU1_O95793_541_DVESCHDMAALNILK (UniProt O95793) | -0.0554 | -0.471
22 | STK11IP_Q8N1F8_538_EVEAELCRPLLVCPLEGPEGVR (UniProt Q8N1F8) | 0.113 | -0.0493
23 | STXBP5_Q5T5C0_49_VLDGLTAGSSSASQQQQQQHPPGNREPEIQETLQSEHFQLCK (UniProt Q5T5C0) | -0.013 | -0.079
24 | STRN3_Q13033_604_NQLLSCSADGTVR (UniProt Q13033) | 0.125 | 0.262
25 | STBD1_O95210_108_EVCDNSR (UniProt O95210) | -0.164 | -0.159
26 | SRSF9_Q13242_80_NGYDYGQCR (UniProt Q13242) | -0.212 | -0.0686
27 | SRRT_Q9BXP5_412_DAAGLECK (UniProt Q9BXP5) | 0.0907 | -0.0142

Row | Target | probe-labelled cysteine peptide fold change (10 µM) | probe-labelled cysteine peptide fold change (50 µM)
28 | STK26_Q9P289_392_SIAVAEAACPGITDK (UniProt Q9P289) | 0.0541 | -0.26
29 | ST14_Q9Y5Y6_268_SFDLASCDER (UniProt Q9Y5Y6) | 0.0714 | 0.108
30 | STIP1_P31948_26_ALSVGNIDDALQCYSEAIK (UniProt P31948) | -0.0575 | -0.0376
31 | SUPT16H_Q9Y5B9_323_ICDVYNAVMDVVKK (UniProt Q9Y5B9) | -0.0967 | -0.0776
32 | SUZ12_Q15022_531_TPITHILVCR (UniProt Q15022) | -0.311 | 0.0908
33 | STK17B_O94768_190_KIGHACELR (UniProt O94768) | 0.0638 | 0.092
34 | SRSF7_Q16629_119_GHYAYDCHR (UniProt Q16629) | 0.11 | 0.158
35 | SRPK2_P78362_680_ASAGECLR (UniProt P78362) | 0.0685 | 0.0217
36 | STAT3_P40763_251_QQIACIGGPPNICLDR (UniProt P40763) | -0.0286 | -0.272
37 | SUPT6H_Q7KZ85_939_RIQDPLIEFAQVCSSDEDILCLK (UniProt Q7KZ85) | -0.53 | 0.221
38 | STAM2_O75886_85_IFHLEVCSR (UniProt O75886) | 0.0446 | 0.173
39 | SSU72_Q9NP77_111_DLFDLILTCEER (UniProt Q9NP77) | -0.0988 | 0.091
40 | STAT6_P42226_452_MCETLNLK (UniProt P42226) | -0.147 | -0.0396
41 | SRRT_Q9BXP5_412_DAAGLECKPR (UniProt Q9BXP5) | 0.0439 | -0.0706
42 | STXBP2_Q15833_110_AAHIFFTDTCPEPLFSELGR (UniProt Q15833) | 0.121 | 0.0745
43 | STK11_Q15831_210_ISDLGVAEALHPFAADDTCR (UniProt Q15831) | 0.159 | 0.107
44 | STIP1_P31948_339_KCQQAEK (UniProt P31948) | -0.0823 | 0.0155
45 | STAT3_P40763_426_ANCDASLIVTEELHLITFETEVYHQGLK (UniProt P40763) | 0.248 | 0.0878
46 | SRPRA_P08240_25_GGLVLWCFQGVSDSCTGPVNALIR (UniProt P08240) | 0.115 | -0.222
47 | SSH3_Q8TE77_413_AQGTHVLVHCK (UniProt Q8TE77) | 0.0573 | 0.0575
48 | STARD5_Q9NSY2_67_GEGIVYGTLEEVWDCVK (UniProt Q9NSY2) | -0.0123 | -0.116
49 | SUMF1_Q8NBK3_365_CAADRLPTMD (UniProt Q8NBK3) | -0.196 | -0.122
50 | SUCLA2_Q9P2R7_430_ILACDDLDEAAR (UniProt Q9P2R7) | 0.12 | 0.0195
51 | SUPT4H1_P63272_36_TIDQFEYDGCDNCDAYLQMK (UniProt P63272) | -0.039 | -0.0331
52 | SUPV3L1_Q8IYB8_175_QIFPVLDCKDDLRK (UniProt Q8IYB8) | -0.295 | -0.144
53 | SUPT5H_O00267_1012_SVTGGMCSVYLK (UniProt O00267) | -0.0187 | 0.0806
54 | SSRP1_Q08945_200_ADVIQATGDAICIFR (UniProt Q08945) | -0.0282 | -0.0316

Row | Target | probe-labelled cysteine peptide fold change (10 µM) | probe-labelled cysteine peptide fold change (50 µM)
55 | STRN4_Q9NRL3_17_AAAAVAAAASSCRPLGSGAGPGPTGAAPVSAPAPGPGPAGK (UniProt Q9NRL3) | -0.0062 | -0.0897
56 | SRRM2_Q9UQ35_1016_SPCPQEK (UniProt Q9UQ35) | -0.0714 | -0.104
57 | STRN4_Q9NRL3_733_KHEEAIHAVACHPSK (UniProt Q9NRL3) | 0.0308 | 0.0102
58 | SRPRB_Q9Y5M8_100_DTQTSITDSCAVYR (UniProt Q9Y5M8) | 0.0527 | 0.136
59 | SUPT16H_Q9Y5B9_153_SWNDCLNK (UniProt Q9Y5B9) | -0.00674 | 0.0947
60 | STRBP_Q96SI9_142_YQVEQCVNEASIIIR (UniProt Q96SI9) | -0.0465 | -0.324
61 | STUB1_Q9UNE7_180_ERELEECQR (UniProt Q9UNE7) | -0.0845 | 0.0492
62 | SUGP2_Q8IX01_417_NCFFEIIKPFDK (UniProt Q8IX01) | -0.0766 | -0.108
63 | STXBP3_O00186_354_QVVHLNLAEDCMNK (UniProt O00186) | -0.0145 | -0.0622
64 | SRRT_Q9BXP5_412_DAAGLECKPRPLHK (UniProt Q9BXP5) | -0.0536 | -0.27
65 | SVIL_O95425_1903_GEVPVEGNLLEVACHCSSLR (UniProt O95425) | 0.192 | 0.286
66 | SUN2_Q9UH99_601_VILQPDVHPGNCWAFQGPQGFAVVR (UniProt Q9UH99) | 0.0666 | 0.174
67 | STIM1_Q13586_56_IDKPLCHSEDEK (UniProt Q13586) | -0.158 | -0.555
68 | STAG2_Q8N3U4_308_AICIEEIGIWMK (UniProt Q8N3U4) | 0.133 | 0.329
69 | STXBP2_Q15833_45_ILSSCCK (UniProt Q15833) | -0.0852 | 0.179
70 | STXBP5_Q5T5C0_697_SRQPSGAGLCDISEGTVVPEDR (UniProt Q5T5C0) | -0.312 | -0.177
71 | SRSF3_P84103_10_DSCPLDCK (UniProt P84103) | -0.261 | -0.35
72 | SUGP2_Q8IX01_656_GADQKPTSADCAVR (UniProt Q8IX01) | -0.0616 | -0.141
73 | SUPT20H_Q8NEM7_341_SDDSQPTVWPAHDVKDDYVFECEAGTQYQK (UniProt Q8NEM7) | -0.178 | -0.19
74 | SRPK2_P78362_223_IIHTDIKPENILMCVDDAYVR (UniProt P78362) | 0.055 | -0.19
75 | STAT1_P42224_324_QPCMPTHPQRPLVLK (UniProt P42224) | 0.09 | 0.0101
76 | STAM_Q92783_76_DPHVAMQALTLLGACVSNCGK (UniProt Q92783) | 0.027 | 0.192
77 | STK11_Q15831_418_ACSASSK (UniProt Q15831) | -0.0334 | -0.133
78 | STXBP5_Q5T5C0_800_EAISALHFCETFTR (UniProt Q5T5C0) | -0.0919 | 0.0698
79 | STUB1_Q9UNE7_244_EPCITPSGITYDR (UniProt Q9UNE7) | 0.0775 | -0.171
80 | SRSF1_Q07955_148_EAGDVCYADVYR (UniProt Q07955) | -0.201 | -0.428
